Among the data in publication PMC9867894 are binding values, retold here.

By UniProt entry, the sequences of proteins in these tests, tags left out.
UniProt P97481: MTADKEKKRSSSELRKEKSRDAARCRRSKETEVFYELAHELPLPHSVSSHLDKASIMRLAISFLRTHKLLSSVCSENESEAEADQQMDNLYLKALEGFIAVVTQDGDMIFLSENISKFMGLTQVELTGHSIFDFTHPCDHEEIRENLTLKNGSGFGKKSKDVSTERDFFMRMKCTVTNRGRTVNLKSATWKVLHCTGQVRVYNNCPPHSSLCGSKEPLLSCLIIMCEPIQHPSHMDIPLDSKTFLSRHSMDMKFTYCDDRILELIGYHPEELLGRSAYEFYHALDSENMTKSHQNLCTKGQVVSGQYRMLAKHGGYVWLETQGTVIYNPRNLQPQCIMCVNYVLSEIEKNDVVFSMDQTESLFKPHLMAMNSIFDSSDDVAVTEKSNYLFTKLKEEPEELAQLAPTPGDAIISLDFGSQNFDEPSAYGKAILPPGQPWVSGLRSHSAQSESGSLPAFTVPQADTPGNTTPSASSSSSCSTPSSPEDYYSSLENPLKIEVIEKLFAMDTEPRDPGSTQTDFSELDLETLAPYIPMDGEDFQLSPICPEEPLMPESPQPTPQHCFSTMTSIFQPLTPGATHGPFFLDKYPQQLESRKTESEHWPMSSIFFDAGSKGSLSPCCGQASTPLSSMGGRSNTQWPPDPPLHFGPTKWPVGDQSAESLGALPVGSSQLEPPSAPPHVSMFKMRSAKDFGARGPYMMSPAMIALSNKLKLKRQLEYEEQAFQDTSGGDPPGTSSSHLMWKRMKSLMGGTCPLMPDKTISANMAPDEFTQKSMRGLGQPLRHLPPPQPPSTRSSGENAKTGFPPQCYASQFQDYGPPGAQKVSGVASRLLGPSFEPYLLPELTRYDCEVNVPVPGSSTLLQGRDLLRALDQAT
UniProt Q64104: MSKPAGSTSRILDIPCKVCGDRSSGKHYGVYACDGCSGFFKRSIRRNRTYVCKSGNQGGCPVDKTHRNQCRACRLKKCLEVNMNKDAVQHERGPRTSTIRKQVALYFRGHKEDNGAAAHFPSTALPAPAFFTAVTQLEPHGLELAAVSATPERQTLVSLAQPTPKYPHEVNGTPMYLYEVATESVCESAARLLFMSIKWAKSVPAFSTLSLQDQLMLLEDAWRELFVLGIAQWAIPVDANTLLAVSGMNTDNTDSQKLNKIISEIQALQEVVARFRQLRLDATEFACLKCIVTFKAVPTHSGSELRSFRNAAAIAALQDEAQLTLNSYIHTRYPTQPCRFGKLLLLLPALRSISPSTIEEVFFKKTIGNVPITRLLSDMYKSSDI

These are yes or no findings as the source states them, for the method shown. In cells and extracts the contact can be indirect. Some binding calls cover weakened binding; strength is not graded here.

The target in assay [1] is hypoxia inducible factor-2α (HIF2α) (mouse (endogenous in retina)) (UniProt P97481). The assay is described as follows: co-IP; retinal lysates of P4 WT mice (20 mM Tris HCl pH 8, 150 mM NaCl, 1% Triton X-100, 2 mM EDTA) incubated with anti-TLX, anti-HIF2α or nonspecific immunoglobulins (5 µg/ml, 4°C, overnight), Protein G magnetic beads, Western blotting. In general terms: A western blot detects proteins with antibodies after separation by electrophoresis.

Assay [2] addresses Tailless (TLX, an orphan nuclear receptor) (mouse (endogenous in retina)) (UniProt Q64104). The assay is described as above.

On to “Tailless (TLX, an orphan nuclear receptor) (from UniProt Q64104 1-385)”, for which the binding entry in assay [1] is recorded as “binds”.
“hypoxia inducible factor-2α (HIF2α) (from UniProt P97481 1-874)”: the binding result in assay [2] was “binds”.
